# Cleaved PARP in drug-treated melanoma cells

Source: doi:10.1371/journal.pone.0140310, primary screening data, rounded.

First drug in all entries: selumetinib, 75 nM, Cn1cnc2c(F)c(Nc3ccc(Br)cc3Cl)c(C(=O)NOCCO)cc21

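Human melanoma cells were exposed to two drugs together for 72 h in 1,536-well plates and read by automated microscopy after fixing and staining. Each value is the cleaved-PARP-positive fraction of nuclei relative to DMSO-treated wells, in %, so that 100 equals the control and higher values mean more apoptosis. Concentrations were fixed for each drug; these are the higher of two levels. These are primary screening values without error estimates. The marker varies much from line to line, for technical or biological reasons.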
This is part of the screen, not chosen by result.
An entry leaves out what has no value listed here.

For Cn1cc(/C=C2\C(=O)Nc3cccnc32)c2ccccc21 at 2000 nM the values were A101D: 178; WM3526: 339; MeWo: 83.4; LB2518-MEL: 409; SK-MEL-28: 83.1; IPC-298: 74.1. With Cn1nnc2c(C(N)=O)ncn2c1=O at 10000 nM the screen read A101D: 102; WM3526: 334; MeWo: 77.2; LB2518-MEL: 155; SK-MEL-28: 245; IPC-298: 272. O=C(O)C(=O)Nc1sc2c(c1C(=O)O)CCNC2 at 8330 nM gave A101D: 145; WM3526: 231; MeWo: 108; LB2518-MEL: 191; SK-MEL-28: 107; IPC-298: 222. Results for OCc1c[nH]c2ccccc12 at 4000 nM are A101D: 72.3; WM3526: 238; MeWo: 87.9; LB2518-MEL: 291; SK-MEL-28: 98.1; IPC-298: 85.3.

COC(=O)c1sccc1S(=O)(=O)Nc1ccc(Nc2ccccc2)cc1OC at 5000 nM gave A101D: 148; WM3526: 490; MeWo: 84.7; LB2518-MEL: 215; SK-MEL-28: 66.6; IPC-298: 201. For COc1cc(Nc2ncc(F)c(Nc3ccc4c(n3)NC(=O)C(C)(C)O4)n2)cc(OC)c1OC at 2000 nM the values were A101D: 62.7; WM3526: 925; MeWo: 228; LB2518-MEL: 318; SK-MEL-28: 197; IPC-298: 228. For COc1ccc(COc2ccc(Cc3cnc(N)nc3N)cc2OC)cc1 at 5000 nM the values were A101D: 26.9; WM3526: 106; MeWo: 60.8; LB2518-MEL: 608; SK-MEL-28: 81.9; IPC-298: 100. COc1ccc(-c2ccc3c(N4CCOCC4)nc(N4C[C@@H](C)O[C@@H](C)C4)nc3n2)cc1CO at 100 nM gave A101D: 207; WM3526: 204; MeWo: 142; LB2518-MEL: 330; SK-MEL-28: 233; IPC-298: 138.

COCC[n+]1c2c(n(Cc3cnccn3)c1C)C(=O)c1ccccc1C2=O at 2 nM gave A101D: 181; WM3526: 926; MeWo: 126; LB2518-MEL: 1430; SK-MEL-28: 52.8; IPC-298: 241. With Oc1nc(-c2ccc(C(F)(F)F)cc2)nc2c1CSCC2 at 10000 nM the screen read A101D: 144; WM3526: 243; MeWo: 144; LB2518-MEL: 153; SK-MEL-28: 154; IPC-298: 57.0. Results for C[C@@H]1CCN(C(=O)CC#N)C[C@@H]1N(C)c1ncnc2[nH]ccc12 at 5000 nM are A101D: 156; WM3526: 123; MeWo: 75.5; LB2518-MEL: 110; SK-MEL-28: 78.3; IPC-298: 42.5. Results for CN(C)S(=O)(=O)c1ccc2c(c1)/C(=C/c1cc3c([nH]1)CCCC3)C(=O)N2 at 2000 nM are A101D: 212; WM3526: 464; MeWo: 95.3; LB2518-MEL: 399; SK-MEL-28: 163; IPC-298: 140.

For c1cc(-c2cnn3cc(-c4ccc(OCCN5CCCCC5)cc4)cnc23)ccn1 at 2000 nM the values were A101D: 89.2; WM3526: 304; MeWo: 94.0; LB2518-MEL: 222; SK-MEL-28: 229; IPC-298: 58.1. With COc1ccc2c(c1)CCC1C2CCC2(C)C(NCCCCCCN3C(=O)C=CC3=O)CCC12 (centres unmarked) at 2000 nM the screen read A101D: 114; WM3526: 412; MeWo: 197; LB2518-MEL: 555; SK-MEL-28: 56.8; IPC-298: 92.0. For O=C(Nc1cccc(Cl)c1)Nc1ncc(CCNc2ncnc3ccsc23)s1 at 4 nM the values were A101D: 67.5; WM3526: 159; MeWo: 195; LB2518-MEL: 201; SK-MEL-28: 56.2; IPC-298: 31.6. With C[C@]1(O)C[C@@H](c2nc(-c3ccc4ccc(-c5ccccc5)nc4c3)c3c(N)nccn32)C1 at 2000 nM the screen read A101D: 183; WM3526: 675; MeWo: 74.4; LB2518-MEL: 798; SK-MEL-28: 93.8; IPC-298: 189.

Results for Cc1nc(Nc2ncc(C(=O)Nc3c(C)cccc3Cl)s2)cc(N2CCN(CCO)CC2)n1 at 20 nM are A101D: 200; WM3526: 178; MeWo: 106; LB2518-MEL: 243; SK-MEL-28: 73.9; IPC-298: 151. For COc1cc2ncnc(Nc3ccc(Oc4ccccc4)cc3)c2cc1OC at 10000 nM the values were A101D: 574; WM3526: 281; MeWo: 196; LB2518-MEL: 407; SK-MEL-28: 186; IPC-298: 95.8. Nc1ccn([C@@H]2O[C@H](CO)[C@@H](O)C2(F)F)c(=O)n1 at 2 nM gave A101D: 86.9; WM3526: 151; MeWo: 285; LB2518-MEL: 141; SK-MEL-28: 39.8; IPC-298: 146. For C#Cc1cccc(Nc2ncnc3cc(OCCOC)c(OCCOC)cc23)c1 at 4000 nM the values were A101D: 113; WM3526: 437; MeWo: 83.0; LB2518-MEL: 175; SK-MEL-28: 110; IPC-298: 208.

Results for CC(=O)c1c(C)c2cnc(Nc3ccc(N4CCNCC4)cn3)nc2n(C2CCCC2)c1=O at 200 nM are A101D: 106; WM3526: 252; MeWo: 65.5; LB2518-MEL: 591; SK-MEL-28: 67.5; IPC-298: 353. For NC(=O)c1ccc(N(C(N)=O)c2c(F)cccc2F)nc1-c1ccc(F)cc1F at 2000 nM the values were A101D: 165; WM3526: 163; MeWo: 60.2; LB2518-MEL: 125; SK-MEL-28: 300; IPC-298: 102. For O=C(O)c1ccc2c(c1)nc(Nc1cccc(Cl)c1)c1ccncc12 at 2000 nM the values were A101D: 48.8; WM3526: 1870; MeWo: 124; SK-MEL-28: 152; IPC-298: 1100. For N#Cc1c(O)c2c(-c3ccc(-c4ccccc4O)cc3)csc2[nH]c1=O at 10000 nM the values were A101D: 35.8; WM3526: 152; MeWo: 110; LB2518-MEL: 80.6; SK-MEL-28: 176; IPC-298: 201.

For CCc1ccc(CCOc2ccc(CC3SC(=O)NC3=O)cc2)nc1 (centres unmarked) at 10000 nM the values were A101D: 46.7; WM3526: 337; MeWo: 159; LB2518-MEL: 212; SK-MEL-28: 173; IPC-298: 216. For O=C(CCCCCCC(=O)Nc1ccccc1)NO at 400 nM the values were A101D: 138; WM3526: 344; MeWo: 110; LB2518-MEL: 491; SK-MEL-28: 245; IPC-298: 246. For Cc1cc(Nc2cc(N3CCN(C)CC3)nc(Sc3ccc(NC(=O)C4CC4)cc3)n2)n[nH]1 at 30 nM the values were A101D: 107; WM3526: 301; MeWo: 106; LB2518-MEL: 601; SK-MEL-28: 76.6; IPC-298: 101. Results for CCCS(=O)(=O)Nc1ccc(F)c(C(=O)c2c[nH]c3ncc(Cl)cc23)c1F at 400 nM are A101D: 64.8; WM3526: 457; MeWo: 48.3; LB2518-MEL: 224; SK-MEL-28: 57.8; IPC-298: 165.

CN(c1ncccc1CNc1nc(Nc2ccc3c(c2)CC(=O)N3)ncc1C(F)(F)F)S(C)(=O)=O at 400 nM gave A101D: 347; WM3526: 402; MeWo: 145; LB2518-MEL: 248; SK-MEL-28: 211; IPC-298: 169. Results for CC(C)(C)c1cnc(CSc2cnc(NC(=O)C3CCNCC3)s2)o1 at 50 nM are A101D: 141; WM3526: 532; MeWo: 120; LB2518-MEL: 241; SK-MEL-28: 77.1; IPC-298: 116. CCN(CC)CCNC(=O)c1c(C)[nH]c(/C=C2\C(=O)Nc3ccc(F)cc32)c1C at 2000 nM gave A101D: 109; WM3526: 749; MeWo: 234; LB2518-MEL: 822; SK-MEL-28: 106; IPC-298: 62.0. COc1cc([C@@H]2c3cc4c(cc3[C@@H](O[C@@H]3O[C@@H]5CO[C@@H](C)O[C@H]5[C@H](O)[C@H]3O)[C@H]3COC(=O)[C@H]23)OCO4)cc(OC)c1O at 100 nM gave A101D: 47.8; WM3526: 178; MeWo: 132; LB2518-MEL: 315; SK-MEL-28: 117; IPC-298: 196.

Results for CNC(=O)c1cc(Oc2ccc(NC(=O)Nc3ccc(Cl)c(C(F)(F)F)c3)cc2)ccn1 at 2000 nM are A101D: 196; WM3526: 210; MeWo: 108; LB2518-MEL: 476; SK-MEL-28: 71.2; IPC-298: 122. O=c1cc(-c2cccc3c2Sc2ccccc2S3)oc(N2CCOCC2)c1 at 5000 nM gave A101D: 396; WM3526: 170; MeWo: 147; LB2518-MEL: 728; SK-MEL-28: 338; IPC-298: 88.7. For Cc1cc(SCc2sc(-c3ccc(C(F)(F)F)c(F)c3)nc2C)ccc1OCC(=O)O at 10000 nM the values were A101D: 152; WM3526: 119; MeWo: 81.4; LB2518-MEL: 106; SK-MEL-28: 198; IPC-298: 80.9. Cc1ccc(NC(=O)c2cccc(N(C)C)c2)cc1NC(=O)c1ccc(O)cc1 at 10000 nM gave A101D: 73.3; WM3526: 192; MeWo: 133; LB2518-MEL: 152; SK-MEL-28: 61.5; IPC-298: 321.

N.N.[Cl][Pt][Cl] at 8000 nM gave A101D: 61.8; WM3526: 167; MeWo: 103; LB2518-MEL: 227; SK-MEL-28: 87.7; IPC-298: 190. With CCCCCCCCCCCC1=C(O)C(=O)C=C(O)C1=O at 6000 nM the screen read A101D: 143; WM3526: 177; MeWo: 144; LB2518-MEL: 439; SK-MEL-28: 345; IPC-298: 94.9.

Once more, the final 2:

* N.N.[Cl][Pt][Cl] at 8000 nM | A101D: 61.8; WM3526: 167; MeWo: 103; LB2518-MEL: 227; SK-MEL-28: 87.7; IPC-298: 190
* CCCCCCCCCCCC1=C(O)C(=O)C=C(O)C1=O at 6000 nM | A101D: 143; WM3526: 177; MeWo: 144; LB2518-MEL: 439; SK-MEL-28: 345; IPC-298: 94.9